Experimental data published in PubChem BioAssay AID1458 (National Center for Advancing Translational Sciences (NCATS), 2008).
The campaign covered roughly 210,000 compounds. About 5,900 (2.8%) were called active. Not shown: some 5% with an inconclusive outcome. Calls follow the shape of the dose curve; as a rule, active = well fitted activation curve with a large enough effect; inconclusive = small, poorly fitted or top-dose-only effect; inactive = no such curve, though single readings can be large or run the other way. This is a selection; strong and weak results do not stand in their true shares. Entries without a call were filed so in the source.

assay: qHTS Assay for Enhancers of SMN2 Splice Variant Expression; conditions: HEK293 SMN2-luciferase splicing reporter, luminescence, 30-36 h; activity change, positive = activation: at 46.1 µM (top of the series) unless noted; also: nearly all actives have a fitted effect of over 55% in size; as to activity change, positive = activation: % of control where 0% means no effect
In short: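 HEK293 cells carry an SMN2 […]–luciferase reporter in which exon 7 inclusion puts luciferase in frame. Cells were plated 10-12 h before compound addition, then incubated 30-36 h at 37C. ONE-Glo luminescence was read; sodium butyrate at 4.5 mM final served as control.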
Potency is read from the fitted curve at half-maximal effect.

Row | Structure (SMILES) | activity change, positive = activation | Potency
1 | CC(=O)c1c(C)[nH]c(C(=O)Nc2ccc(C)c(C)c2)c1C | 31.9% | 
2 | CCC(C)(C(=O)NC1CCCCC1)N(CC1CCCO1)C(=O)c1ccccn1 (stereo unspecified) | 33.8% | 
3 | Cc1cccc(-c2nc(SCC(=O)Nc3ccc4c(c3)OCO4)c(-c3ccccc3)[nH]2)c1 | inactive: -49% | 
4 | CS(=O)(=O)N(CC(=O)N1CCCCCC1)Cc1ccc(Cl)cc1 | 36.1% | 
5 | Cc1nnc2ccc(-c3cccc(NC(=O)c4ccc(Br)o4)c3)nn12 | 35.7% | 
6 | O=C(NNC(=S)NC(=O)c1sc2ccccc2c1Cl)c1ccc(Cl)cc1 | inactive: -47.4% | 
7 | c1ccc(-n2ncc3c(NCCN4CCOCC4)ncnc32)cc1 | 41.4% | 
8 | CCCC(=O)N1CCN(c2ccc(NC(=S)NC(=O)c3cccc(C)c3)cc2)CC1 | inactive: -50.5% | 
9 | Cc1ccc(N=N/C(=C\O)C(=O)c2ccc(Cl)cc2)cc1 | -67.5% | 
10 | COc1cc(C(=O)O)cc(NC(=O)c2cccs2)c1OC | 11.4% | 
11 | CCOC(=O)N1CCC(NC(=O)Cn2c3ccccc3c3cn[nH]c(=O)c32)CC1 | 67.1% | 
12 | Cn1c2ccccc2c2c(C(=O)NCC3CCCO3)cn(C3CCCC3)c(=O)c21 (stereo unspecified) | inactive: -45.4% | 
13 | COc1cc(C(=O)N2CCN(C(=O)C3CC3)CC2)cc(OC)c1OC | 33.7% | 
14 | COc1cccc(NC(=O)COc2ccc(C)cc2)c1 | inactive: -51.4% | 
15 | Cc1cccc(Cn2nnc3c2C(=O)c2ccccc2C3=O)c1 | inactive: -73.8% | 
16 | COC(=O)C1=C(C(=O)OC)SC2(S1)C(C(=O)OC)=C(C(=O)OC)SC1=C2c2cc(C)ccc2NC1(C)C | 42.1% | 
17 | CN(C)S(=O)(=O)c1ccc(NC(=O)c2ccccn2)cc1 |  | active: 11.2 µM
18 | COc1ccc(CCNC(=O)COC(=O)Cc2cccc3ccccc23)cc1 | 30.7% | 
19 | Cc1ccc(/C=N/NC(=O)c2nn(C)cc2Cl)cc1 |  | active: 11.2 µM
20 | COC(=O)c1ccc(/C=N/OCC(=O)NC2CCCC(C)C2C)cc1 (stereo unspecified) | inactive: -74.1% | 
21 | CC(=O)N(\C=C/C=C/C=C1\Sc2ccccc2C1=O)c1ccccc1 | inactive: -58.2% | 
22 | CC(Oc1ccc2ccccc2c1)C(=O)NNC(=S)NC(=O)c1ccco1 (stereo unspecified) | -42% | 

Row | Structure (SMILES) | activity change, positive = activation | Potency
23 | CC(=O)c1ccc(N2CCN(C(=O)/C=C/c3ccc4ccccc4n3)CC2)cc1 | inactive: -75.7% | 
24 | Cc1c(N/N=C(\C#N)C(=O)c2ccc(Cl)cc2)c(=O)n(-c2ccccc2)n1C | -89.4% | 
25 | CN(C)CCN(C(=O)c1ccc(N2C(=O)CCC2=O)cc1)c1nc2cc3c(cc2s1)OCCO3 | 31.4% | 
26 | COc1cc(/C=C(\C#N)c2nc3c(s2)CCCC3)ccc1O |  | active: 22.4 µM
27 | COc1ccc2c(c1)C(=O)/C(=C/C=C/c1ccccc1)CC2 |  | active: 11.2 µM
28 | COc1cc(C(=O)Nc2cc(C)c(OCC(=O)N3CCOCC3)c(C)c2)cc(OC)c1OC | 42.7% | 
29 | COc1cccc(C(=O)Nc2cc3c(cc2Cl)OCCCO3)c1 |  | active: 10 µM
30 | CCOc1cccc(N2C(=O)CC(N3CCN(c4nc5ccccc5s4)CC3)C2=O)c1 (stereo unspecified) | 36.6% | 
31 | CC1CC(=O)N(c2ccc(NCc3ccc(Cl)cc3)c([N+](=O)[O-])c2)C1=O (stereo unspecified) | 9.66% | 
32 | O=C(N/N=C/c1ccsc1)c1ccccn1 | 195% | 
33 | CCOC(=O)N1CCC(Nc2nc3ccccc3nc2NS(=O)(=O)c2ccc(Cl)cc2)CC1 | 50.5% | 
34 | COC(=O)c1cccc(NC(=O)c2onc3c2CCCC3)c1 |  | active: 0.794 µM
35 | COc1cc(CNc2ccc(CNc3ncn[nH]3)cc2)cc(Cl)c1OCc1ccccc1 | -42.8% | 
36 | Cc1ccc(-c2nnc(N(C)C(=O)c3ccccn3)s2)cn1 | 63.4% | 
37 | COc1ccc(C2(O)CCN(CC(=O)Nc3nc(-c4ccccc4)cs3)CC2)cc1 | inactive: -52.6% | 
38 | Cc1cc(NS(=O)(=O)Cc2ccccc2)no1 | 43.5% | 
39 | O=C1N=C(N2CCOCC2)S/C1=C\c1ccc(-c2ccccc2Cl)o1 | inactive: -16.7% | 
40 | O=C(Nc1ccncc1)C1c2ccccc2Oc2ccccc21 | 81.8% | 
41 | CCN(CC)C(=O)c1ccccc1NS(=O)(=O)c1ccc(C)cc1 | 44.1% | 
42 | COC(=O)c1cc(-c2ccccc2)n(CC(=O)O)c1C | 83.2% | 
43 | CN(C)c1ccc(C=Nc2cnn(C)c2C(N)=O)cc1 | 34.5% | 
44 | COc1cccc(C(=O)Oc2cc3c4c(c2)C(C)=CC(C)(C)N4C(=O)C3=O)c1 | 12% | 

Complete entries from above:
COc1cccc(C(=O)Nc2cc3c(cc2Cl)OCCCO3)c1 in the list: Potency: active: 10 µM
Cc1cc(NS(=O)(=O)Cc2ccccc2)no1 in the list: activity change, positive = activation: 43.5%
Cc1ccc(-c2nnc(N(C)C(=O)c3ccccn3)s2)cn1 in the list: activity change, positive = activation: 63.4%
COC(=O)c1cccc(NC(=O)c2onc3c2CCCC3)c1 in the list: Potency: active: 0.794 µM

Continued:

Row | Structure (SMILES) | activity change, positive = activation | Potency
45 | CCOc1ccc(C(=O)C(CCC(CN(C)C)C(=O)c2ccc(OCC)cc2)CN(C)C)cc1 (stereo unspecified) | inactive: -107% | 
46 | C/C(=N\OCc1ccccc1C#N)c1cc2ccccc2o1 | 35.5% | 
47 | Cc1ccc(NC(=O)c2ccc(OC(F)(F)F)cc2)cc1S(=O)(=O)N(C)C | inactive: -75.9% | 
48 | CCn1c(NC(=O)c2cccc(Cn3cc(Cl)cn3)c2)nc2ccccc21 | inactive: -52% | 
49 | CN1CCN(C(=S)NC(=O)/C=C/c2ccccc2)CC1 | -25.2% | 
50 | COC(=O)c1sccc1NC(=O)c1ccc(C)s1 | -46.1% | 
51 | N#CC1=C(N)Oc2c(ccc3cccnc23)C1c1cccnc1 (stereo unspecified) | -35.4% | 
52 | Cc1cc(Cl)c(S(=O)(=O)NCc2ccncc2)cc1OCC(N)=O | -36.7% | 
53 | S=C(NCCc1ccccc1)NN=C1CCCCCC1 |  | active: 12.6 µM
54 | Cc1ccc(O)c(C(=O)c2cnn(-c3ccccc3)c2)c1 | 81.7% | 
55 | Cc1nnc(SCC(=O)N2CCc3ccccc3C2)s1 | 40.2% | 
56 | Cc1onc(C(=O)Nc2sc3c(c2C#N)CCCC3)c1[N+](=O)[O-] | -24% | 
57 | Cc1cccc(NCc2cc(Cl)ccc2O)n1 | -50.2% | 
58 | Cc1ccc(CNC(=O)CCCCn2c(=O)c3ccccc3n(Cc3c(C)cc(C)cc3C)c2=O)cc1 | inactive: -6.63% | 
59 | CCCCCn1c(Sc2nc3ccccc3s2)nc2c1c(=O)[nH]c(=O)n2C | inactive: -47.6% | 
60 | CCOC(=O)COc1ccc(-c2nnc(-c3ccccc3)o2)cc1 | 32.1% | 
61 | CCC(=O)Nc1ccc2oc(-c3cccc(C)c3)nc2c1 |  | active: 0.501 µM
62 | Cc1ccc(Cl)cc1N1CCN(C(=O)C2CCN(S(=O)(=O)c3c(C)nn(C)c3C)CC2)CC1 | inactive: -30.5% | 
63 | Cc1cc2oc(=O)cc(CN3CCOCC3)c2cc1C | 18.8% | 
64 | C=C1c2c(Cl)ccc(O)c2C(O)=C2C(=O)[C@@]3(O)C(O)=C(C(N)=O)C(=O)[C@@H](N(C)C)[C@@H]3[C@@H](O)[C@H]12 | inactive: -10.1% [at 20.6 µM] | 
65 | Cc1cc(C(=O)C(C)OC(=O)C2=NNC(=O)CC2)c(C)n1-c1ccc(OC(F)F)cc1 (stereo unspecified) | -42.2% | 
66 | CCC(=O)N1CCc2cc(Br)cc(S(=O)(=O)CCC(=O)NCCc3ccc(OC)c(OC)c3)c21 | 37.7% | 
